In article PMC9778607:
No constants are given. Whether binding was seen depends on the method and setting. Binding seen in cells or lysates may run through a third protein. Some entries that bind do so weakly or less than the wild type. For some assays here: Sequences can lack the tags named with a protein.

Protein sequences, listed by entry. Tags and fused reporters are not part of them. Residues count along the entry.
UniProt O75460, residues 19-977: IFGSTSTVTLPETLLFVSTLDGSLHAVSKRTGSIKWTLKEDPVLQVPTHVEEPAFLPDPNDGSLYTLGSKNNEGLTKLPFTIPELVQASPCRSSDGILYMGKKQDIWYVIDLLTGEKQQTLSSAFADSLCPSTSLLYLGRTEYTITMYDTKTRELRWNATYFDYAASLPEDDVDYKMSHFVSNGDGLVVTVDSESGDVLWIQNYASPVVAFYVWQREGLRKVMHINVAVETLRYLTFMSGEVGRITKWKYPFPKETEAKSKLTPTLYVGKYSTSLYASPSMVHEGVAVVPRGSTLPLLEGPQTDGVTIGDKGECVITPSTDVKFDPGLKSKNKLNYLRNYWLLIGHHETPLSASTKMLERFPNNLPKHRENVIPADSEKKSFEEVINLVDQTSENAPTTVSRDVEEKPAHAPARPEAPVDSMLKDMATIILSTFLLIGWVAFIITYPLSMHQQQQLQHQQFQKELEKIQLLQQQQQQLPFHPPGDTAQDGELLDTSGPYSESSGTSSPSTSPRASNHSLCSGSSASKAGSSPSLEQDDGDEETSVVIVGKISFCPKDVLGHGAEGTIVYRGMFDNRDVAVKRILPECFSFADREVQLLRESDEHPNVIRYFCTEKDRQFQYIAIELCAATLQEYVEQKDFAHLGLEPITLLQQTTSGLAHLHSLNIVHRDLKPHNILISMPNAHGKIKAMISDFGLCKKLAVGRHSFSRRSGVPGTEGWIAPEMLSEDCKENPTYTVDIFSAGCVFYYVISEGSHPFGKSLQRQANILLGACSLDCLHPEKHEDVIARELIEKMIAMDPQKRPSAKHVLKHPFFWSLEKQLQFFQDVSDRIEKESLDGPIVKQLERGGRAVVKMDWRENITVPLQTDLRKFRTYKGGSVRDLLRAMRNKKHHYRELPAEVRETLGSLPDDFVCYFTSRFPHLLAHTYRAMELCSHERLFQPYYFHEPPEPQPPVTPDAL

Experiments:
[1] = biological target: T1, V5-tagged EBI3 (ectopic, from pEF6-EBI3-V5) (human) (UniProt Q14213); assay: co-IP; MSCs in monolayer transfected with pEF6-EBI3-V5 for 48 hrs, then IL-1β for 24 hrs; anti-V5-tag pAb-agarose with 100 μg protein in 100 μl lysis buffer, 2 hours at 4°C; Western blotting for IRE1α and EBI3
T1 sequence: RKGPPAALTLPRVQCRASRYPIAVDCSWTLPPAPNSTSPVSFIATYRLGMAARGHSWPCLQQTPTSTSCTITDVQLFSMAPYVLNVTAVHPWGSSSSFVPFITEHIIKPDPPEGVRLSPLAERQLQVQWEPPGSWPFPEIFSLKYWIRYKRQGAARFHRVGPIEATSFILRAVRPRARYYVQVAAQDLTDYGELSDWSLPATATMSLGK

[2] = biological target: T2, Epstein–Barr virus-induced gene 3 (EBI3), endogenous in human MSCs (human (endogenous in human bone marrow-derived MSCs)) (UniProt Q14213); assay: co-IP; lysate of MSC pellets at day 2 of chondrogenesis; EBI3 antibody overnight at 4°C, protein A agarose 2 hours; Western blotting and CBB to detect p62
T2 sequence: T1 sequence

Substance | binding [1] | binding [2]
inositol-requiring enzyme 1 α (IRE1α) (from UniProt O75460 19-977) | no binding | –
p62 (EBI3-associated protein) (from UniProt Q13501 1-440) | – | binds
